Literature values as cited in patent US20160038452A1, “Methods for Administering a Depot of Disulfiram” (priority 2014, published 2016).
At least one structure is not confirmed: it was looked up by name or label, or the drawing left a doubt.

What was measured:
[1] = fluid preparation injected subcutaneously
[2] = subcutaneous implanted disulfiram tablets

CCN(CC)C(=S)SSC(=S)N(CC)CC [disulfiram]
time over which DER was observable [1]: up to 2 weeks
subjective response of DER when exposed to ethanol ([1]; DER measurable): mild
clinical efficacy [2]: failed to show clinical efficacy
